No constants are given. Whether binding was seen depends on the method and setting. For some assays here: In cells and extracts the contact can be indirect. Some binding calls cover weakened binding; strength is not graded here. Where a sequence is shown, tags or fusion partners need not be part of it.
T1: human recombinant TPPP3 (hexaHis fusion) (human) (UniProt Q9BW30)
T1 sequence: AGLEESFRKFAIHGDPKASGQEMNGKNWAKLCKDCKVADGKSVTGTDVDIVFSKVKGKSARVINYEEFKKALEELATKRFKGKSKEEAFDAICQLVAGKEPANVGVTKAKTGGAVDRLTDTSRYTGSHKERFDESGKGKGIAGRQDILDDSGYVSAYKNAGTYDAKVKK

B1: unlabeled TPPP3 (pcDNA3.1(-)-TPPP3) (protein, UniProt Q9BW30 1-176)
chain: MAASTDMAGLEESFRKFAIHGDPKASGQEMNGKNWAKLCKDCKVADGKSVTGTDVDIVFSKVKGKSARVINYEEFKKALEELATKRFKGKSKEEAFDAICQLVAGKEPANVGVTKAKTGGAVDRLTDTSRYTGSHKERFDESGKGKGIAGRQDILDDSGYVSAYKNAGTYDAKVKK
B2: EGFP-TPPP3 (protein, UniProt Q9BW30 1-176)
chain: B1 chain
B3: TPPP3 fused to a half of mVenus (pBiFC-V^N-TPPP3 and pBiFC-V^C-TPPP3) (protein, UniProt Q9BW30 1-176)
chain: B1 chain

Legend:
[1] = target: T1, human recombinant TPPP3 (hexaHis fusion) (human); assay: ELISA; TPPP3 immobilised on the plate; extracts of HeLa cells transfected with pEGFP-TPPP3 or pEGFP-TPPP1 added at different concentrations; detected by GFP antibody; only the target purified
[2] = target: TPPP1 fused to the N-terminal half of mVenus (pBiFC-V^N-TPPP1) (human) (UniProt O94811); assay: split reporter; BiFC with half-mVenus constructs (100-100 ng for each V^N-V^C pair) in HeLa cells, fixed with cold methanol; 100 ng unlabeled TPPP3 plasmid co-transfected as competitor where mentioned
[3] = target: TPPP3 fused to a half of mVenus (pBiFC-V^N-TPPP3 and pBiFC-V^C-TPPP3) (human) (UniProt Q9BW30); assay: as above

Row | Molecule | binding [1] | binding [2] | binding [3]
1 | EGFP-TPPP1 (from UniProt O94811 1-219) | binds | – | –
2 | B1 | – | binds | –
3 | B2 | binds | – | –
4 | B3 | – | binds | binds

— publication PMC9564178 (Cells, 2022)
